# Results taken from publication doi:10.1101/2025.07.25.666749.
# These are yes or no findings as the source states them, for the method shown. Binding seen in cells or lysates may run through a third protein. A yes stands for co-enrichment or nearness to the bait. Other partners may have been found.
# T1: ZFP36L1 (endogenous) (human (endogenous in primary T cells)) (UniProt Q07352)
# T1 sequence: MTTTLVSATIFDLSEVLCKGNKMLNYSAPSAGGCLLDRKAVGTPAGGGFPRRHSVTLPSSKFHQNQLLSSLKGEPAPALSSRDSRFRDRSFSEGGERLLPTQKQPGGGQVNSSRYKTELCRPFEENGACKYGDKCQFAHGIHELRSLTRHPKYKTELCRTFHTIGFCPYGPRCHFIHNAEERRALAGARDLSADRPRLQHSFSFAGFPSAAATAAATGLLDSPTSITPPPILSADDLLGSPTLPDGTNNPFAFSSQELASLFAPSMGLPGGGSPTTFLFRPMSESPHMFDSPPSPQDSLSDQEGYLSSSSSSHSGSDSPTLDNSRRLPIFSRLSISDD
# B1: NFKBIE (protein, UniProt O00221 1-500)
# chain: MNQRRSESRPGNHRLQAYAEPGKGDSGGAGPLSGSARRGRGGGGAIRVRRPCWSGGAGRGGGPAWAVRLPTVTAGWTWPALRTLSSLRAGPSEPHSPGRRPPRAGRPLCQADPQPGKAARRSLEPDPAQTGPRPARAAGMSEARKGPDEAEESQYDSGIESLRSLRSLPESTSAPASGPSDGSPQPCTHPPGPVKEPQEKEDADGERADSTYGSSSLTYTLSLLGGPEAEDPAPRLPLPHVGALSPQQLEALTYISEDGDTLVHLAVIHEAPAVLLCCLALLPQEVLDIQNNLYQTALHLAVHLDQPGAVRALVLKGASRALQDRHGDTALHVACQRQHLACARCLLEGRPEPGRGTSHSLDLQLQNWQGLACLHIATLQKNQPLMELLLRNGADIDVQEGTSGKTALHLAVETQERGLVQFLLQAGAQVDARMLNGCTPLHLAAGRGLMGISSTLCKAGADSLLRNVEDETPQDLTEESLVLLPFDDLKISGKLLLCTD
# Target: T1, ZFP36L1 (endogenous) (human (endogenous in primary T cells))
# Assay: affinity purification with mass spectrometry
binder,measurement,value
B1,binding,binds
